This passage reports cell number change and AC50 results from PubChem BioAssay AID2685 (National Center for Advancing Translational Sciences (NCATS), 2010).

This is one part of the list. Further columns of the screen follow, without active or inactive calls. Compounds called inactive in the main read-out are mostly missing here. Words in brackets tell the shape of the fitted curve; partial curves, single points and poor fits give uncertain potencies. Where a SMILES comes first, the peptide text is derived from it. The star is where a group is joined. Boc = CC(C)(C)OC(=O)*

The assay in a line: qHTS Assay for Lipid Storage Modulators in Drosophila S3 Cells.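 On cell number change: cells counted by Cell Tracker Red CMTPX staining in the red channel.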 To be noted: BODIPY lipid droplet fluorescence, 18-24 h; for cell number change: measured here: cell count max response, cells fed with added oleic acid. In a few lines:
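Drosophila S3 cells loaded with oleic acid (400 uM, as added) and compounds at several concentrations; lipid droplets imaged by 488-nm laser-scanning cytometry, 500–530 nm intensity and object ratio to cell channel. Percent activity normalized to 20 uM Triacsin C.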

Setting [1] is: measured here: lipid fluorescence (Fed channel) AC50, cells fed with added oleic acid.
Setting [2] is: measured here: cell number channel AC50, cells fed with added oleic acid.

`COCCN1C(=O)C(=O)/C(=C(/O)c2ccc(S(=O)(=O)N3CCOCC3)cc2)C1c1ccc(O)cc1` (stereo unspecified): the cell number change is -14.3%. For the same molecule, the concentration at half-maximal activity (AC50) under setting [1] is 0.13 µM [falling, full curve, poor fit].
With `CCOC(=O)Cn1nnnc1C(C(C)C)N(Cc1cc2c(C)cc(C)cc2[nH]c1=O)C1CCCC1` (stereo unspecified), the cell number change is -34.6%. Under setting [2], the half-maximal activity concentration (AC50) was 29.1 µM [falling, single point].
Take `Cc1nc(N)c(C#N)c(-c2cccnc2)c1-c1ccccc1`: the cell number change worked out at 11.1%.
As to `Oc1ccccc1-n1c(-c2ccccc2)ccc1-c1ccccc1`, the AC50 under setting [1] is 0.13 µM [falling, full curve, poor fit].
As for `O=S1(=O)N=C(N/N=C/C=C/c2ccccc2)c2ccccc21`, the cell number change is -11.8%. The AC50 under setting [1] is 20.6 µM [falling, partial curve, poor fit].
As to `COc1ccc(C(C(=O)NCc2ccccc2)N(C(=O)c2snc(C(N)=O)c2N)C2CCCC2)cc1` (stereo unspecified), the cell number change is -19%.
Regarding `CCOC(=O)c1cnc2ccc(OCC)cc2c1N(C)Cc1ccccc1`, the cell number change was -27.4%. Besides, under setting [1], the AC50 was 29.1 µM [falling, single point].
Consider `COc1ccc(CCNC(=O)C2CCN(S(=O)(=O)c3ccc(C)cc3)CC2)cc1`, for which the concentration at half-maximal activity (AC50) under setting [2] is 0.326 µM [rising, full curve, poor fit].
In the case of `Cc1cc(NS(=O)(=O)c2ccc(NC(=O)Nc3ccccc3)cc2)no1`, the cell number change was 1.25%. Moreover, under setting [1], the half-maximal activity concentration (AC50) was 0.291 µM [falling, full curve, poor fit].
With `COc1ccc(-n2nc(C(=O)Nc3ccc4c(c3)OCO4)c3c4ccccc4n(C)c3c2=O)cc1`, the cell number change amounted to 223%. In addition, under setting [2], the half-maximal activity concentration (AC50) is 29.1 µM [rising, partial curve]. Further, the AC50 under setting [1] was 29.1 µM [rising, partial curve].
As for `CCOC(=O)c1c(N)sc(=S)c2c1CCC2`, the cell number change was -4.65%. Moreover, the AC50 under setting [2] was 0.731 µM [rising, single point].
On to `COCCCNC(=S)NNC(=O)c1ccoc1C`, for which the cell number change is 22.6%. For the same molecule, the AC50 under setting [1] was 0.0058 µM [rising, full curve, poor fit].
`CCOC(=O)C1=C(c2ccccc2)N2CCS(=O)(=O)N=C2S1`: the AC50 was 2.59 µM [rising, partial curve] under setting [2] and 3.66 µM [rising, partial curve] under setting [1].
With `CCc1ccc(NC(=O)C(=O)NNC(=O)c2ccc(OC)cc2)cc1`, the cell number change came out at 50.9%. For the same molecule, the AC50 under setting [2] is 32.6 µM [rising, partial curve, poor fit].
`C=CCc1cc(C)ccc1OCCn1ccnc1`: the cell number change worked out at 10.6%. Moreover, the AC50 under setting [1] was 2.06 µM [rising, partial curve].
With `Cc1cc(C)n2nc(C(=O)OCC(=O)NCc3ccc(Cl)cc3)nc2n1`, the cell number change worked out at 11.7%. The half-maximal activity concentration (AC50) under setting [2] is 3.66 µM [falling, single point]. Also, the AC50 under setting [1] was 3.66 µM [falling, single point].
With `COC(=O)c1sccc1Oc1c(Cl)cccc1[N+](=O)[O-]`, the cell number change is 1.3%.
As for `CC(=O)c1cc(NC(=O)c2ccc([N+](=O)[O-])cc2)c(=O)oc1C`, the cell number change was -18.9%. The half-maximal activity concentration (AC50) under setting [1] is 0.0517 µM [falling, full curve].
As for `O=C(NC1CCSC1)c1cccc(Cl)c1` (stereo unspecified), the cell number change amounted to 23.7%.
As for `N#Cc1ccc(-c2ccc(F)cc2)nc1Sc1ccccc1`, the cell number change is -10.6%. Besides, under setting [2], the AC50 is 1.03 µM [falling, full curve, poor fit]. Also, the concentration at half-maximal activity (AC50) under setting [1] is 0.731 µM [falling, full curve].
In the case of `CCOC(=O)c1csc(NC(=O)CSc2nnnn2CC)n1`, the cell number change is -15.4%. The AC50 under setting [2] is 0.13 µM [falling, full curve, poor fit]. Besides, the half-maximal activity concentration (AC50) under setting [1] is 0.0259 µM [falling, full curve, poor fit].
In the case of `COC(=O)CON1C(=O)c2ccccc2C1=O`, the half-maximal activity concentration (AC50) under setting [1] is 5.8 µM [falling, partial curve].
Take `CCC(C)(C)C1CCc2[nH]nc(C(=O)N/N=C(\C)c3ccco3)c2C1` (stereo unspecified): the cell number change was -36.9%. For the same molecule, under setting [2], the AC50 was 14.6 µM [falling, single point]. Further, the AC50 under setting [1] was 29.1 µM [falling, single point].
On to `O=C(CCNC(=O)c1ccc(Br)cc1)NCc1ccccn1`, for which the cell number change worked out at 30.3%. For the same molecule, under setting [2], the AC50 was 16.4 µM [rising, single point].
As for `CSc1cc(-c2ccccc2)n(C)c(=O)c1C#N`, the cell number change amounted to 36.4%. The AC50 under setting [2] was 0.411 µM [rising, full curve, poor fit]. Further, the AC50 under setting [1] is 29.1 µM [rising, partial curve, poor fit].
Consider `Cn1cc(S(=O)(=O)NC(c2ccccc2)c2ccccc2)c(=O)n(C)c1=O`, for which the cell number change came to 3.94%. Under setting [1], the AC50 was 2.59 µM [falling, single point].
For the molecule `CN1/C(=N\O)c2cccc3cccc1c23`, the cell number change was 3.96%. Moreover, under setting [1], the AC50 was 4.61 µM [rising, single point].
Take `CCc1ccc(CNC(=O)C2Cc3cc(S(=O)(=O)N4CCCC4)ccc3N2C(C)=O)cc1` (stereo unspecified): under setting [1], the AC50 is 18.4 µM [falling, single point].
Regarding `CCc1nc(N)nc2c1C(=O)CC(C)(C)C2`, the cell number change stood at 9.15%. Besides, the AC50 under setting [2] was 2.59 µM [rising, partial curve, poor fit].
`COc1cccc(NC(=O)Nn2cnnc2)c1`: the cell number change was determined as 29.2%.
For `COc1ccc(CCC(=O)NNC(=O)c2cccs2)cc1`, the cell number change turned out to be 18.6%. Further, the half-maximal activity concentration (AC50) under setting [1] was 5.17 µM [rising, full curve, poor fit].
`O=C(NCCC(c1ccccc1)c1ccccc1)c1cccs1`: the cell number change worked out at 10.9%. Also, the AC50 under setting [2] was 0.146 µM [falling, full curve, poor fit]. Under setting [1], the AC50 was 0.116 µM [falling, full curve].
Turning to `CCOc1ccc(-n2cc(C(=O)NCc3ccco3)c3cc(OC)c(OC)cc3c2=O)cc1`, the cell number change turned out to be 3.37%.
Turning to `CCOc1ccccc1OCC(=O)Nc1nc2ccccc2[nH]1`, the AC50 under setting [2] was 5.8 µM [rising, single point].
In the case of `CC1=N/C(=C\c2ccc(OC(C)C)cc2)C(=O)N1c1ccc(C(=O)O)cc1`, the cell number change amounted to 15.3%. Further, the AC50 under setting [2] is 1.16 µM [rising, full curve]. Further, the AC50 under setting [1] was 0.651 µM [rising, full curve].
Consider `O=C(Nc1cccnc1)C1(c2ccc(Cl)cc2)CCCC1`, for which the cell number change was 38.7%. Besides, under setting [2], the half-maximal activity concentration (AC50) was 6.51 µM [rising, partial curve]. The AC50 under setting [1] is 6.51 µM [rising, single point].
In the case of `Cn1cnc([N+](=O)[O-])c1Sc1n[nH]c(N)n1`, the cell number change stood at 6.09%.
As for `CCC(C)C(NC(=O)OC(C)(C)C)C(=O)NC(CC(C)C)C(N)=O` (stereo not drawn) (Boc-Ile-Leu-NH2; configuration not given here), the cell number change is -149%. In addition, the AC50 under setting [2] was 29.1 µM [falling, single point]. Under setting [1], the AC50 was 29.1 µM [falling, single point].
Turning to `COc1ccc(CC(=O)Nc2ccc(-c3cn4ccc(C)cc4n3)cc2)cc1`, the cell number change is -0.516%.
`C=CCn1c(SCC(=O)Nc2ccccc2C)nc2sc(C)c(C)c2c1=O`: the cell number change is -40.6%. Under setting [2], the half-maximal activity concentration (AC50) was 2.31 µM [rising, partial curve]. In addition, under setting [1], the AC50 is 2.31 µM [rising, partial curve].
`COc1ccc(CSc2nnc3[nH]c(=O)cc(N)n23)cc1`: the cell number change was -6.56%. Further, under setting [2], the concentration at half-maximal activity (AC50) was 0.082 µM [falling, full curve, poor fit].
With `CCCCOc1ccc(-c2c(C(=O)Nc3ccccc3)c(C)[nH]c(=S)c2C#N)cc1`, the cell number change is 34.4%. The concentration at half-maximal activity (AC50) under setting [2] was 5.17 µM [rising, single point].
As to `Cc1ccc(SC[C@H](Cc2ccccc2)N2CC[C@@H](C)CCC2=O)cc1`, the cell number change is 9.88%. Under setting [2], the AC50 is 0.116 µM [rising, full curve, poor fit].
`O=C(NCc1ccc2c(c1)OCO2)c1cc2n(n1)C(C(F)(F)F)CC(c1ccc3c(c1)OCO3)N2` (stereo unspecified): the AC50 under setting [2] was 7.31 µM [falling, single point].
For `Cc1cc(C)cc(OCC(=O)Nc2ccc(CN3CCCCC3)cc2)c1`, the cell number change amounted to 42.3%. Under setting [2], the AC50 was 0.00461 µM [rising, full curve, poor fit]. Besides, the AC50 under setting [1] is 29.1 µM [rising, single point].
Consider `COc1ccc(CN2C(=O)C(Cc3ccccc3)Nc3ncnc(N4CCN(c5ccccc5)CC4)c32)cc1` (stereo unspecified), for which the cell number change is -13.9%. In addition, the AC50 under setting [1] was 11.6 µM [falling, single point].
As for `Cc1nc(C)n(CC(C)C(=O)N2CCN(S(=O)(=O)c3ccc(Cl)cc3)CC2)n1` (stereo unspecified), the cell number change was -23.7%. For the same molecule, under setting [2], the AC50 was 0.0517 µM [falling, full curve, poor fit].
For `Cc1nc2ccccc2nc(=O)c1NNc1ccc([N+](=O)[O-])cc1`, the cell number change amounted to 9.86%. Also, the concentration at half-maximal activity (AC50) under setting [1] is 0.411 µM [rising, partial curve, poor fit].
With `O=C(O)c1ccc2c(c1)C(=O)N([C@H](Cc1ccc(Cl)cc1)C(=O)O)C2=O`, the cell number change stood at 18.3%. In addition, the concentration at half-maximal activity (AC50) under setting [1] is 29.1 µM [rising, single point].
`CC1CCN(C(=O)CN2C(=O)c3ccccc3S2(=O)=O)CC1`: the cell number change worked out at 10.4%. Further, under setting [1], the concentration at half-maximal activity (AC50) was 0.259 µM [falling, full curve, poor fit].
For `COc1cccc(-c2c(-c3cc(OC)cc(OC)c3)n(C)c3ccc(-c4ccc5[nH]ccc5c4)cc23)c1`, the cell number change was -8.67%. Further, the AC50 under setting [1] was 0.651 µM [rising, single point].
Take `CCOc1ccc(CN2C(=O)c3ccccc3C2=O)cc1C(=O)NC1CC(C)(C)NC(C)(C)C1`: the cell number change is -54.4%. The AC50 under setting [2] is 23.1 µM [falling, single point]. Besides, under setting [1], the AC50 was 4.11 µM [falling, full curve].
In the case of `CCOc1ccc(N2CC(C(=O)NCCN3C(=O)S/C(=C\c4ccc(OC)c(OC)c4)C3=O)CC2=O)cc1` (stereo unspecified), the AC50 under setting [1] is 4.11 µM [rising, partial curve, poor fit].
As to `COC(=O)c1ccc2c(=O)n(CCN3CCOCC3)c(SCC(=O)C(C)(C)C)nc2c1`, the cell number change was determined as 21.6%. The half-maximal activity concentration (AC50) under setting [1] was 25.9 µM [rising, single point].
With `Cc1cn(C2OC(COC(=O)c3ccccc3)C(O)C2Cl)c(=O)[nH]c1=O` (stereo unspecified), the cell number change was found to be 10.4%. Besides, under setting [1], the AC50 was 1.16 µM [rising, full curve].
In the case of `Cc1c(Br)cc(C(=O)O)c(C)c1C`, the AC50 under setting [1] was 18.4 µM [falling, partial curve].
Turning to `N#CC1=C(N)Oc2n[nH]c(-c3cccs3)c2C1c1cccnc1` (stereo unspecified), the cell number change was -2.28%. Under setting [1], the AC50 was 0.116 µM [rising, full curve, poor fit].
